# Test results taken from PubChem BioAssay AID2685 (National Center for Advancing Translational Sciences (NCATS), 2010).
# The list shows a part of the results. These are further read-outs of the screen, such as a control signal, another cell line or another target. No call is given for them. Most of these compounds were active or inconclusive in the main read-out, so they are no random draw. Potencies come from curve fits of mixed quality, noted in brackets.
# Test: qHTS Assay for Lipid Storage Modulators in Drosophila S3 Cells;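 for cell number change: cells counted by Cell Tracker Red CMTPX staining in the red channel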
# Details: BODIPY lipid droplet fluorescence, 18-24 h; for cell number change: measured here: cell count max response, cells fed with added oleic acid
# Summary of the method: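 Drosophila S3 cells loaded with oleic acid (400 uM, as added) and compounds at several concentrations; lipid droplets imaged by 488-nm laser-scanning cytometry, 500–530 nm intensity and object ratio to cell channel. Percent activity normalized to 20 uM Triacsin C.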
# [1] = measured here: cell number channel AC50, cells fed with added oleic acid
# [2] = measured here: lipid fluorescence (Fed channel) AC50, cells fed with added oleic acid
Compound,cell number change [%],AC50 [1],AC50 [2]
Cc1ccc(NC(=O)CN(C)C(=O)c2cccnc2Nc2cccc(C(F)(F)F)c2)cc1,-34.8,"18.4 µM [falling, single point]","29.1 µM [falling, single point]"
CN(Cc1ccc(F)cc1)C(=O)c1ccc(NS(=O)(=O)c2ccccc2)cc1,73.4,"29.1 µM [rising, single point]",
O=C(COc1ccccc1)N(Cc1cccc(F)c1)C1CCS(=O)(=O)C1 (centres undefined),17.2,,"29.1 µM [falling, single point]"
COc1ccc(-c2csc(NC(=O)Cc3cccc4ccccc34)c2C(=O)O)cc1,-16.6,,
COc1ccc(-c2csc(-c3cccs3)n2)c(OC)c1,21,,"0.0116 µM [falling, full curve, poor fit]"
O=c1cc(CSc2nnc(-c3ccco3)o2)c2ccccc2[nH]1,20.6,"4.11 µM [rising, partial curve, poor fit]","5.8 µM [rising, partial curve]"
Cc1cccc(NC(=O)NCC(F)(F)F)n1,42.1,"0.0206 µM [rising, full curve, poor fit]","29.1 µM [rising, partial curve, poor fit]"
CC(C)COc1ccc(C2NC(=O)NC2=O)cc1 (centres undefined),-12.5,,"23.1 µM [falling, partial curve]"
COc1ccc(C(=O)NCc2ccc3c(c2)cc(C)n3C)cc1OC,36.3,"0.164 µM [rising, full curve, poor fit]","29.1 µM [rising, single point]"
Cc1cc(NC(=O)CCC(=O)N(CC(=O)NC2CCCC2)c2ccc(F)cc2)no1,2.56,,"6.51 µM [rising, single point]"
CCCN(CC1CCCO1)C(=O)CCc1nnc(CCc2ccc(OC)cc2)o1 (centres undefined),33.1,"0.13 µM [rising, full curve, poor fit]",
O=C(NCc1ccccc1CN1CCCC1)c1cccc(N2CCCC2=O)c1,-1.07,,"1.84 µM [falling, partial curve, poor fit]"
O=C(CSc1ccc(-c2ccc3c(c2)OCO3)nn1)Nc1nccs1,-20.1,,
COc1ccc(CN2CCN(Cc3cccc(Oc4ccccc4)c3)CC2)c(OC)c1OC,-46.9,"29.1 µM [falling, single point]",
O=C(NNS(=O)(=O)c1ccccc1F)c1sccc1-n1cccc1,-7.47,,
NC(=O)Cn1c(=O)n(CCCC(=O)NC2CCN(Cc3ccccc3)CC2)c(=O)c2ccccc21,-4.9,"0.00517 µM [falling, full curve, poor fit]","0.00411 µM [rising, full curve, poor fit]"
O=C(Cn1cc(C(F)(F)F)ccc1=O)N1CCc2ccccc2C1,-1.56,,"5.8 µM [rising, full curve]"
c1ccc(Nc2nc(-c3ccccc3)ns2)cc1,-9.52,"0.00731 µM [falling, full curve, poor fit]",
O=C1c2ccccc2CC1Sc1nnc(-c2ccncc2)o1 (centres undefined),31.9,"18.4 µM [rising, single point]",
COc1ccc(C2=NN(C(=O)CCC(=O)O)C(c3ccc(F)cc3)C2)cc1 (centres undefined),2.29,,"0.411 µM [rising, full curve]"
Cc1ccc(S(=O)(=O)N2CCN(CC(=O)N/N=C/c3ccc(C)o3)CC2)cc1,11,,"0.00461 µM [rising, full curve, poor fit]"
CCN1/C(=C/c2ccc3ccccc3[n+]2CCCS(=O)(=O)[O-])C=Cc2cc(C)ccc21,6.92,"2.06 µM [rising, partial curve, poor fit]",
Cc1ccc(C)c(Oc2nnnn2-c2ccccc2)c1,14.9,,
NC(=O)c1ccc(-c2c(-c3ccccc3)sc3ccccc23)cc1,19.8,,"0.13 µM [rising, full curve]"
Cc1ccc2cc(C(c3nnnn3C(C)(C)C)N3CCCCCC3)c(=O)[nH]c2c1 (centres undefined),96.3,"8.2 µM [rising, partial curve]","3.66 µM [rising, full curve, poor fit]"
Clc1ccc(Sc2ccc(/C=N/n3cnnc3)o2)cc1,3.07,,
C[N+](C)(C)CCCC(=O)c1ccc2c(c1)OCO2,-14.8,"0.116 µM [falling, full curve, poor fit]",
O=C(CCCNC(=O)c1ccc(Cl)cc1)Nc1cccc(F)c1,9.4,,"0.0651 µM [falling, full curve, poor fit]"
O=C(O)c1ccnc(C(=O)O)c1,-3.97,,"18.4 µM [rising, single point]"

# Among those listed so far, these contain four or more nitrogen atoms.
Compound,cell number change [%],AC50 [1],AC50 [2]
Cc1ccc(NC(=O)CN(C)C(=O)c2cccnc2Nc2cccc(C(F)(F)F)c2)cc1,-34.8,"18.4 µM [falling, single point]","29.1 µM [falling, single point]"
Cc1cc(NC(=O)CCC(=O)N(CC(=O)NC2CCCC2)c2ccc(F)cc2)no1,2.56,,"6.51 µM [rising, single point]"
O=C(CSc1ccc(-c2ccc3c(c2)OCO3)nn1)Nc1nccs1,-20.1,,
NC(=O)Cn1c(=O)n(CCCC(=O)NC2CCN(Cc3ccccc3)CC2)c(=O)c2ccccc21,-4.9,"0.00517 µM [falling, full curve, poor fit]","0.00411 µM [rising, full curve, poor fit]"
Cc1ccc(S(=O)(=O)N2CCN(CC(=O)N/N=C/c3ccc(C)o3)CC2)cc1,11,,"0.00461 µM [rising, full curve, poor fit]"
Cc1ccc(C)c(Oc2nnnn2-c2ccccc2)c1,14.9,,
Cc1ccc2cc(C(c3nnnn3C(C)(C)C)N3CCCCCC3)c(=O)[nH]c2c1 (centres undefined),96.3,"8.2 µM [rising, partial curve]","3.66 µM [rising, full curve, poor fit]"
Clc1ccc(Sc2ccc(/C=N/n3cnnc3)o2)cc1,3.07,,
